Test results: article PMC5117851
Results are given in words; binding and its absence hold for the method and conditions named. In cells and extracts the contact can be indirect. Some binding calls cover weakened binding; strength is not graded here.

Assays:
[1] = biological target: Axl receptor tyrosine kinase (human (endogenous in SNB-19)) (UniProt P30530); assay: co-IP; endogenous proteins in SNB-19 lysate (IP lysis buffer), with or without EGF (50 ng/ml, 5 min) before lysis; 2 ug Axl or EGFR IP antibody, 2 h at room temperature, protein A/G-agarose beads; western blot
[2] = biological target: Axl in the BiFC vector pDEST-ORF-V1 (UniProt P30530); assay: split reporter; Venus BiFC in HEK-293T cells transfected with Axl in pDEST-ORF-V1 and EGFR in pDEST-ORF-V2, 16 h; confocal microscopy and high-content single cell fluorescence; with or without EGF, with or without gefitinib

Substance: EGFR (from UniProt P00533 25-1210) (receptor)
- binding [1]: binds

Substance: EGFR in the BiFC vector pDEST-ORF-V2 (from UniProt P00533 25-1210) (receptor)
- binding [2]: binds
